Assay results reported in article PMC5045598.
These are yes or no findings as the source states them, for the method shown. Binding seen in cells or lysates may run through a third protein. Here binding means that the protein was enriched with, or labelled near, the bait; the list need not be complete.

The chains behind the UniProt entries cited, without tags or fusion partners.
UniProt Q02539: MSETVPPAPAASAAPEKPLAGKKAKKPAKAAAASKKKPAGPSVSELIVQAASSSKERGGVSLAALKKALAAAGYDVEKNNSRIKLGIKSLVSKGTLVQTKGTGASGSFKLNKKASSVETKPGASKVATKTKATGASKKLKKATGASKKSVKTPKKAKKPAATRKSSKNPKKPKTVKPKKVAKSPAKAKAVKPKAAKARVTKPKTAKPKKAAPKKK
UniProt Q92522: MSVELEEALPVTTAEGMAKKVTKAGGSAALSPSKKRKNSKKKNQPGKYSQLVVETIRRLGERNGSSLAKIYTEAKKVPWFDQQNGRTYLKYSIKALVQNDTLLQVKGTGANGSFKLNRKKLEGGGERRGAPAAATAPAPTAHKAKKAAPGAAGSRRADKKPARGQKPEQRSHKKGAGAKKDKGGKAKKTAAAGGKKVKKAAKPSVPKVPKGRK

Assays:
Test in all cases: affinity purification with mass spectrometry; 6 × His-tagged H1 variant from doxycycline-induced U2OS soluble whole cell extract (NP40 lysis buffer: 150 mM NaCl, 50 mM Tris pH7.5, 10 % glycerol, 0.75 % NP40); Mono Q column, then Ni2+ chelating column (wash 50 mM imidazole, elution 500 mM imidazole); peak fractions by LC-MS/MS in duplicate; mock purification from untransfected U2OS Tet/On cells as negative control; H1.1 eluted in two Mono Q peaks, each purified separately
[1] = target: 6 × His-tagged histone H1.2 (human) (UniProt P16403)
[2] = target: 6 × His-tagged histone H1.1 (human) (UniProt Q02539)
[3] = target: 6 × His-tagged histone H1x (human) (UniProt Q92522)

Binder | binding [1] | binding [2] | binding [3]
SRP68 (protein, UniProt Q9UHB9 1-627) MAAEKQVPGGGGGGGSGGGGGSGGGGSGGGRGAGGEENKENERPSAGSKANKEFGDSLSLEILQIIKESQQQHGLRHGDFQRYRGYCSRRQRRLRKTLNFKMGNRHKFTGKKVTEELLTDNRYLLLVLMDAERAWSYAMQLKQEANTEPRKRFHLLSRLRKAVKHAEELERLCESNRVDAKTKLEAQAYTAYLSGMLRFEHQEWKAAIEAFNKCKTIYEKLASAFTEEQAVLYNQRVEEISPNIRYCAYNIGDQSAINELMQMRLRSGGTEGLLAEKLEALITQTRAKQAATMSEVEWRGRTVPVKIDKVRIFLLGLADNEAAIVQAESEETKERLFESMLSECRDAIQVVREELKPDQKQRDYILEGEPGKVSNLQYLHSYLTYIKLSTAIKRNENMAKGLQRALLQQQPEDDSKRSPRPQDLIRLYDIILQNLVELLQLPGLEEDKAFQKEIGLKTLVFKAYRCFFIAQSYVLVKKWSEALVLYDRVLKYANEVNSDAGAFKNSLKDLPDVQELITQVRSEKCSLQAAAILDANDAHQTETSSSQVKDNKPLVERFETFCLDPSLVTKQANLVHFPPGFQPIPCKPLFFDLALNHVAFPPLEDKLEQKTKSGLTGYIKGIFGFRS | binds | binds | binds
SRP72 (protein, UniProt O76094 1-671) MASGGSGGVSVPALWSEVNRYGQNGDFTRALKTVNKILQINKDDVTALHCKVVCLIQNGSFKEALNVINTHTKVLANNSLSFEKAYCEYRLNRIENALKTIESANQQTDKLKELYGQVLYRLERYDECLAVYRDLVRNSQDDYDEERKTNLSAVVAAQSNWEKVVPENLGLQEGTHELCYNTACALIGQGQLNQAMKILQKAEDLCRRSLSEDTDGTEEDPQAELAIIHGQMAYILQLQGRTEEALQLYNQIIKLKPTDVGLLAVIANNIITINKDQNVFDSKKKVKLTNAEGVEFKLSKKQLQAIEFNKALLAMYTNQAEQCRKISASLQSQSPEHLLPVLIQAAQLCREKQHTKAIELLQEFSDQHPENAAEIKLTMAQLKISQGNISKACLILRSIEELKHKPGMVSALVTMYSHEEDIDSAIEVFTQAIQWYQNHQPKSPAHLSLIREAANFKLKYGRKKEAISDLQQLWKQNPKDIHTLAQLISAYSLVDPEKAKALSKHLPSSDSMSLKVDVEALENSAGATYIRKKGGKVTGDSQPKEQGQGDLKKKKKKKKGKLPKNYDPKVTPDPERWLPMRERSYYRGRKKGKKKDQIGKGTQGATAGASSELDASKTVSSPPTSPRPGSAATVSASTSNIIPPRHQKPAGAPATKKKQQQKKKKGGKGGW | binds | binds | binds
Hakai (protein, UniProt Q75N03 1-491) MDHTDNELQGTNSSGSLGGLDVRRRIPIKLISKQANKAKPAPRTQRTINRMPAKAPPGDEEGFDYNEEERYDCKGGELFANQRRFPGHLFWDFQINILGEKDDTPVHFCDKCGLPIKIYGRMIPCKHVFCYDCAILHEKKGDKMCPGCSDPVQRIEQCTRGSLFMCSIVQGCKRTYLSQRDLQAHINHRHMRAGKPVTRASLENVHPPIAPPPTEIPERFIMPPDKHHMSHIPPKQHIMMPPPPLQHVPHEHYNQPHEDIRAPPAELSMAPPPPRSVSQETFRISTRKHSNLITVPIQDDSNSGAREPPPPAPAPAHHHPEYQGQPVVSHPHHIMPPQQHYAPPPPPPPPISHPMPHPPQAAGTPHLVYSQAPPPPMTSAPPPITPPPGHIIAQMPPYMNHPPPGPPPPQHGGPPVTAPPPHHYNPNSLPQFTEDQGTLSPPFTQPGGMSPGIWPAPRGPPPPPRLQGPPSQTPLPGPHHPDQTRYRPYYQ | binds | binds | binds
CCNL1 (protein, UniProt Q9UK58 1-526) MASGPHSTATAAAAASSAAPSAGGSSSGTTTTTTTTTGGILIGDRLYSEVSLTIDHSLIPEERLSPTPSMQDGLDLPSETDLRILGCELIQAAGILLRLPQVAMATGQVLFHRFFYSKSFVKHSFEIVAMACINLASKIEEAPRRIRDVINVFHHLRQLRGKRTPSPLILDQNYINTKNQVIKAERRVLKELGFCVHVKHPHKIIVMYLQVLECERNQTLVQTAWNYMNDSLRTNVFVRFQPETIACACIYLAARALQIPLPTRPHWFLLFGTTEEEIQEICIETLRLYTRKKPNYELLEKEVEKRKVALQEAKLKAKGLNPDGTPALSTLGGFSPASKPSSPREVKAEEKSPISINVKTVKKEPEDRQQASKSPYNGVRKDSKRSRNSRSASRSRSRTRSRSRSHTPRRHYNNRRSRSGTYSSRSRSRSRSHSESPRRHHNHGSPHLKAKHTRDDLKSSNRHGHKRKKSRSRSQSKSRDHSDAAKKHRHERGHHRDRRERSRSFERSHKSKHHGGSRSGHGRHRR | binds | binds | binds
DDX50 (protein, UniProt Q9BQ39 1-737) MPGKLLWGDIMELEAPLEESESQKKERQKSDRRKSRHHYDSDEKSETRENGVTDDLDAPKAKKSKMKEKLNGDTEEGFNRLSDEFSKSHKSRRKDLPNGDIDEYEKKSKRVSSLDTSTHKSSDNKLEETLTREQKEGAFSNFPISEETIKLLKGRGVTYLFPIQVKTFGPVYEGKDLIAQARTGTGKTFSFAIPLIERLQRNQETIKKSRSPKVLVLAPTRELANQVAKDFKDITRKLSVACFYGGTSYQSQINHIRNGIDILVGTPGRIKDHLQSGRLDLSKLRHVVLDEVDQMLDLGFAEQVEDIIHESYKTDSEDNPQTLLFSATCPQWVYKVAKKYMKSRYEQVDLVGKMTQKAATTVEHLAIQCHWSQRPAVIGDVLQVYSGSEGRAIIFCETKKNVTEMAMNPHIKQNAQCLHGDIAQSQREITLKGFREGSFKVLVATNVAARGLDIPEVDLVIQSSPPQDVESYIHRSGRTGRAGRTGICICFYQPRERGQLRYVEQKAGITFKRVGVPSTMDLVKSKSMDAIRSLASVSYAAVDFFRPSAQRLIEEKGAVDALAAALAHISGASSFEPRSLITSDKGFVTMTLESLEEIQDVSCAWKELNRKLSSNAVSQITRMCLLKGNMGVCFDVPTTESERLQAEWHDSDWILSVPAKLPEIEEYYDGNTSSNSRQRSGWSSGRSGRSGRSGGRSGGRSGRQSRQGSRSGSRQDGRRRSGNRNRSRSGGHKRSFD | binds |  | 
nucleolar RNA binding protein EBP2 (protein, UniProt Q99848 1-306) MDTPPLSDSESESDESLVTDRELQDAFSRGLLKPGLNVVLEGPKKAVNDVNGLKQCLAEFKRDLEWVERLDVTLGPVPEIGGSEAPAPQNKDQKAVDPEDDFQREMSFYRQAQAAVLAVLPRLHQLKVPTKRPTDYFAEMAKSDLQMQKIRQKLQTKQAAMERSEKAKQLRALRKYGKKVQTEVLQKRQQEKAHMMNAIKKYQKGFSDKLDFLEGDQKPLAQRKKAGAKGQQMRKGPSAKRRYKNQKFGFGGKKKGSKWNTRESYDDVSSFRAKTAHGRGLKRPGKKGSNKRPGKRTREKMKNRTH | binds |  | 
